Measurements from PubChem BioAssay AID720504 (National Center for Advancing Translational Sciences (NCATS), 2013).
About 10,000 (2.8%) of roughly 360,000 compounds were called active. The shares of active, inactive and inconclusive entries below differ from those in the screen. Calls come from the whole dose curve; as a rule, active = well fitted inhibition curve with a large enough effect; inconclusive = small, poorly fitted or top-dose-only effect; inactive = flat fitted curve, though single readings scatter. Potencies of inconclusive entries are doubtful fits and often do not repeat.
% is set by controls: 0 for no effect and ±100 for the full control effect; potency is the fitted concentration of half-maximal effect.
Note: nearly all actives have a fitted effect of over 65% in size.
Throughout, for max response, negative = inhibition: series mostly up to about 57 µM.

Amino acid sequences for entries named in this document (tags omitted).
UniProt P53350, whole entry, looked up: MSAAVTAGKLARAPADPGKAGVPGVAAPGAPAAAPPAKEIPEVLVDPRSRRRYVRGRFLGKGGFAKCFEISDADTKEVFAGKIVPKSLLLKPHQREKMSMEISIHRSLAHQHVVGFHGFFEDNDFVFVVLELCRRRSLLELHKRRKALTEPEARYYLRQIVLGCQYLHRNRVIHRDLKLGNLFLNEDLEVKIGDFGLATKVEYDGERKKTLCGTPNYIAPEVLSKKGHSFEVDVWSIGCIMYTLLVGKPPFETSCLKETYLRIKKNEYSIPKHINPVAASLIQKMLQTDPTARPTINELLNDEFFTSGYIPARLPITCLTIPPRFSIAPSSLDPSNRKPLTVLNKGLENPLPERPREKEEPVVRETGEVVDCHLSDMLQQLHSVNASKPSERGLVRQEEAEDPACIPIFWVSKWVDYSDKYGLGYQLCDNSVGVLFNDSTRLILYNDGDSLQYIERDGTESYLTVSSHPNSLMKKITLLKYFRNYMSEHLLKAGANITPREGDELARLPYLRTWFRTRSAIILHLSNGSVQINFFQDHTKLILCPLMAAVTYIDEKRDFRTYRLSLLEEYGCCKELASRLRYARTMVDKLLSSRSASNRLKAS

The compounds below were run against Serine/threonine-protein kinase PLK1 (Homo sapiens) (UniProt P53350) (assay: qHTS for Inhibitors of PLK1-PDB (polo-like kinase 1 - polo-box domain): Primary Screen). Conditions: Plk1 PBD binding of FITC phosphopeptide, fluorescence polarization.
`NC(=O)CC(NC(=O)c1ccc(Br)cc1)c1ccc(NC2CCCCC2)c([N+](=O)[O-])c1` (configuration not stated) was tested, and the max response, negative = inhibition was inactive: 8.3%.
For `O=C(NC(=S)NN1CCCCC1c1cccnc1)c1ccc(Br)cc1` (configuration not stated), the Potency was inconclusive: 29.9 µM [inhibitor, single point].
With `CCOCCn1c(SCC(=O)OCc2ccccc2)nc2c1c(=O)[nH]c(=O)n2C` the Potency was active: 21.2 µM.
For `O/N=C\c1cnc(N2CCN(c3ccccc3)CC2)s1`, the Potency was inconclusive: 33.6 µM [inhibitor, single point].
With `COc1cc(NS(=O)(=O)c2ccc(Nc3nc(-c4cccc([N+](=O)[O-])c4)cs3)cc2)nc(OC)n1` the Potency was inconclusive: 23.8 µM [inhibitor, single point].
In the case of `O=C(CCN1C(=O)S/C(=C\c2ccccc2)C1=O)Nc1ccc(S(=O)(=O)Nc2nccs2)cc1`, the Potency is reported as inconclusive: 26.7 µM [inhibitor, single point].
For `Cc1cc(=O)c2c(o1)C(=O)c1occc1C2=O`, the Potency was inconclusive: 16.8 µM [inhibitor, partial curve].
`Cc1cc(OCC(=O)NCC2CCC(C(=O)O)CC2)c2c(C)c(Cc3ccccc3)c(=O)oc2c1` (configuration not stated) was tested, and the Potency was inconclusive: 75.2 µM [inhibitor, partial curve].
`CCOC(=O)CCc1c(C)c2ccc(O)cc2oc1=O` was tested, and the max response, negative = inhibition was inactive: -13.4%.
`Cc1[nH]c2ccccc2c1C(C[N+](=O)[O-])c1ccco1` (configuration not stated) was tested, and the Potency was inconclusive: 37.7 µM [inhibitor, single point].
For `Cn1c(N=NC(=O)c2ccccc2)c(O)c2ccccc21`, the Potency was active: 26.7 µM.
In the case of `CC(c1ccccc1)n1c(Cn2ncc3ccccc3c2=O)n[nH]c1=S` (configuration not stated), the max response, negative = inhibition is reported as inactive: 1.47%.
`CC(=O)Nc1ccc(S(=O)(=O)Oc2ccc(C(=S)N3CCC(O)CC3)cc2)cc1` was tested, and the Potency was inconclusive: 26.7 µM [inhibitor, partial curve].
With `Cc1ccc(S(=O)(=O)N2CCCCC2)cc1NC(=O)Cn1cnnn1` the max response, negative = inhibition was inactive: -7.41%.
With `O=C(Nc1ccc(S(=O)(=O)N2CCOCC2)cc1)c1ccc(Cl)c([N+](=O)[O-])c1` the Potency was active: 26.7 µM.
With `c1ccc2c(c1)nnn2Cc1nnc2sc(-c3ccncc3)nn12` the Potency was active: 31.6 µM.
In the case of `Cc1c(C)n(CC(O)CNCCO)c2ccccc12` (configuration not stated), the max response, negative = inhibition is reported as inactive: 4.01%.
For `CC(C)OC(=O)c1cn(-c2ccccc2)nc1-c1ccco1`, the Potency was inconclusive: 23.8 µM [inhibitor, partial curve].
`O=C(c1ccc(NC(=O)C(c2ccccc2)c2ccccc2)cc1)c1ccc(C(=O)O)c(C(=O)O)c1` was tested, and the Potency was inconclusive: 37.7 µM [inhibitor, single point].
With `Cc1c(C=O)c2ccccn2c1C(=O)c1ccc(Cl)c([N+](=O)[O-])c1` the max response, negative = inhibition was inactive: -7.8%.
`CC1CN(C(=O)CCC(=O)NCc2ccc(Cl)cc2)c2ccccc2S1` (configuration not stated) was tested, and the Potency was inconclusive: 21.2 µM [inhibitor, partial curve].
With `O=C(Oc1ccc(C(=S)N2CCOCC2)cc1)c1cc([N+](=O)[O-])cc([N+](=O)[O-])c1` the max response, negative = inhibition was inactive: -24.1%.
For `O=C(CSc1ccc(Br)cc1)N1CCN(S(=O)(=O)c2ccccc2)CC1`, the Potency was inconclusive: 16.8 µM [inhibitor, partial curve].
For `COc1nc(Cl)cn(-c2ccc(C)cc2)c1=O`, the max response, negative = inhibition was inactive: 5.79%.
For `O=C(Cn1nc(-c2ccco2)ccc1=O)Nc1ccc(Cl)c(Cl)c1`, the Potency was inconclusive: 21.2 µM [inhibitor, single point].
With `CCCn1c(SCc2ccccc2)nc2c1c(=O)[nH]c(=O)n2C` the Potency was inconclusive: 23.8 µM [inhibitor, partial curve].
In the case of `COc1cccc(N2CC(C(=O)Nc3nnc(SCC(=O)N4CCCC4)s3)CC2=O)c1` (configuration not stated), the Potency is reported as inconclusive: 29.9 µM [inhibitor, partial curve, poor fit].
For `COc1ccc(/C(N)=N/OC(=O)CCCN2C(=O)c3ccccc3C2=O)cc1OC`, the Potency was active: 23.8 µM.
`O=C(CCl)NCCN1C(=O)S/C(=C\c2cccnc2)C1=O` was tested, and the max response, negative = inhibition was inactive: -20.5%.
`COC(=O)c1cnc(SCc2ccc(Cl)cc2)n1C` was tested, and the max response, negative = inhibition was inactive: -12%.
In the case of `Nc1nnc(CC(=O)N/N=C/c2ccc(-c3ccccc3)o2)s1`, the max response, negative = inhibition is reported as inactive: -7.1%.
For `CC1(C)CC(C)(O)N(Cc2ccccc2)C(=S)N1` (configuration not stated), the Potency was inconclusive: 16.8 µM [inhibitor, partial curve].
With `O=c1[nH]c(-c2ccccc2F)nc2c1sc(=S)n2Cc1ccccc1` the Potency was inconclusive: 18.9 µM [inhibitor, partial curve].
For `CCOc1cccc(=O)c2c(C)oc(C)c12`, the Potency was inconclusive: 26.7 µM [inhibitor, partial curve].
With `N#Cc1ccccc1OCC(=O)NC(N)=O` the Potency was inconclusive: 26.7 µM [inhibitor, partial curve].
With `O=C(Cc1ccc(Br)cc1)Nc1ncc([N+](=O)[O-])s1` the Potency was inconclusive: 18.9 µM [inhibitor, partial curve].
`Fc1ccc(CSc2nnc(-c3ccncc3)o2)cc1` was tested, and the Potency was inconclusive: 26.7 µM [inhibitor, partial curve].
For `COc1ccc(C(=O)Nn2c(CCC(=O)O)ccc2-c2ccc(C)cc2)cc1OC`, the Potency was active: 21.2 µM.
In the case of `CC(=O)NC12CC3CC(C1)CC(C(=O)N1CCN(c4ncccn4)CC1)(C3)C2`, the max response, negative = inhibition is reported as inactive: -10.5%.
For `Cc1ccc(NC(=O)Cn2cc(S(=O)(=O)c3ccc(F)cc3)c(=O)c3cc(F)ccc32)cc1`, the Potency was inconclusive: 37.7 µM [inhibitor, single point].
For `Cc1ccc(CNC(=O)c2ccc(-n3cccc3)cc2)cc1`, the Potency was inconclusive: 26.7 µM [inhibitor, partial curve].
For `CCOC(=O)C1=C(C)Nc2ccccc2S1`, the Potency was inconclusive: 37.7 µM [inhibitor, single point].
With `CCOc1ccc(NC(=O)c2nccnc2CO)cc1` the max response, negative = inhibition was inactive: -8.26%.
With `COC(=O)COc1ccc(C2Nc3c(Cl)ccc(C(=O)O)c3C3C=CCC32)cc1` (configuration not stated) the Potency was active: 21.2 µM.
With `CCOC(=O)C1CCN(S(=O)(=O)c2cccc(-c3csc(C)n3)c2)CC1` the Potency was inconclusive: 26.7 µM [inhibitor, single point].
With `O=S(=O)(c1ccc(OCc2ccc(Br)cc2)cc1)N1CCOCC1` the max response, negative = inhibition was inactive: -8.06%.
For `CC(C(=O)Nc1ccccc1Cl)N(c1ccccc1)S(C)(=O)=O` (configuration not stated), the Potency was inconclusive: 26.7 µM [inhibitor, single point].
`COc1ccc(C(CNC(=O)c2ccco2)N2CCCCC2)cc1` (configuration not stated) was tested, and the Potency was inconclusive: 23.8 µM [inhibitor, partial curve].
With `COc1cccc(CNC(=O)CCC2CCCN(C(=O)c3cccnc3SC)C2)c1` (configuration not stated) the max response, negative = inhibition was inactive: -1.7%.
`O=C(O)c1ccc(NC(=S)NC(=O)c2cccc(COc3ccccc3)c2)cc1` was tested, and the Potency was inconclusive: 29.9 µM [inhibitor, single point].
With `COc1cccc(CNc2cccc(C(F)(F)F)c2)c1O` the max response, negative = inhibition was inactive: 7.2%.
In the case of `C[C@H](O)[C@H](O)[C@H]1CNc2nc(N)[nH]c(=O)c2N1`, the Potency is reported as active: 26.7 µM.
`N#C/C(=C/c1ccc(OCc2ccc(C(=O)O)cc2)c(Br)c1)c1cccc(F)c1` was tested, and the Potency was inconclusive: 23.8 µM [inhibitor, single point].
With `C=C1[C@H](C)CN(S(=O)(=O)C(C)(C)C)[C@H]1CCO` the max response, negative = inhibition was inactive: -25.5%.
`CNC(=S)N1N=C(c2ccc(C)cc2)CC1c1cc(OC)ccc1OC` (configuration not stated) was tested, and the max response, negative = inhibition was inconclusive: -26.1% [inhibitor].
For `CCN1CCN(C(=S)c2ccc(Cl)cc2)CC1`, the Potency was active: 2.12 µM.
`COC(=O)Cc1ccc(NC(=S)NCc2ccccc2Cl)cc1` was tested, and the Potency was inconclusive: 13.4 µM [inhibitor, partial curve].
`COc1cc(C(=S)N2CCOCC2)ccc1OC(=O)c1cccc(C)c1` was tested, and the Potency was inconclusive: 16.8 µM [inhibitor, partial curve].
With `COC(=O)c1c(NC(=O)CN2CCC3(O)CCCCC3C2c2ccc(OC)cc2OC)sc(C)c1C` (configuration not stated) the Potency was active: 21.2 µM.
`Cc1cc(C)nc(NS(=O)(=O)c2ccc(NC(=O)Cc3ccccc3)cc2)n1` was tested, and the Potency was inconclusive: 26.7 µM [inhibitor, single point].
With `COc1ccc(C)cc1NC(=O)C(NC(=O)c1cc(OC)c(OC)c(OC)c1)C(C)C` (configuration not stated) the Potency was active: 29.9 µM.
For `Cc1nc(N(C)C)c2sc(=S)n(-c3ccccc3)c2n1`, the Potency was active: 26.7 µM.
`COc1cc(OC)c2c(-c3ccccc3)cc(=O)oc2c1C(CCN1CCOCC1)c1ccc(N(C)C)cc1` (configuration not stated) was tested, and the max response, negative = inhibition was inactive: -18.9%.
`CN1CCN(C(=O)Nc2cccc(-c3ccccc3)c2)CC1` was tested, and the max response, negative = inhibition was inactive: -19.8%.
`COc1ccc(-n2c(Cc3cc(=O)[nH]c(=O)[nH]3)nnc2SCC(=O)Nc2ccccc2)cc1` was tested, and the Potency was inconclusive: 26.7 µM [inhibitor, single point].
`COc1ccc(C(=O)O)cc1NC(=S)NC(=O)c1ccc(-c2ccc(Cl)cc2)o1` was tested, and the Potency was inconclusive: 33.6 µM [inhibitor, partial curve].
With `COc1ccc(C(=O)OCCCc2cc3ccccc3c(=O)o2)cc1` the max response, negative = inhibition was inactive: -14.1%.
In the case of `Cc1ccc(Cl)cc1NC(=O)CSC(N)=O`, the Potency is reported as inconclusive: 6.7 µM [inhibitor, partial curve].
In the case of `Cc1cc(=O)oc2c(CN3CC(C)OC(C)C3)c(O)c(Cl)cc12` (configuration not stated), the Potency is reported as inconclusive: 21.2 µM [inhibitor, partial curve].
`CCN(CC)C(=S)Sc1c(-c2ccccc2)c2cc(Cl)ccc2[nH]c1=O` was tested, and the Potency was inconclusive: 26.7 µM [inhibitor, partial curve].
For `CN1CCc2nc(SCCOc3ccccc3)c(C#N)cc2C1`, the max response, negative = inhibition was inactive: -9.69%.
In the case of `CC(C)(C)NC(=O)C(c1ccc(F)cc1)N(CCc1ccccc1)C(=O)c1ccn[nH]1` (configuration not stated), the Potency is reported as active: 26.7 µM.
